No constants are given. Whether binding was seen depends on the method and setting. In cells and extracts the contact can be indirect. These calls come from enrichment with a bait or labelling near it, and not all partners need be listed.
B1: DEK2 (protein, UniProt Q84JB7 1-530)
chain: MATETLDEKTPEVNSPAKEEIDVVPKEEKEVEKEKVDSPRIGEAEEEKKEDEEEGEAKEGELGEKDKEDDVESEEEEEEEEGSGSKKSSEKETVTPTSERPTRERKKVERFSLSTPMRAPPSKSVSIEKGRGTPLREIPNVAHKLSKRKADDNLMLLHTILFGKKAKAQMVKRNIGQFSGFAWSEKEEEKQRARIKEKIDKCVKEKLIVFCDVLDIPISRSNVKKEELAVKVLEFLESPKETRDVIIADQEKAKKRKSTPKRGKSGESSDTPAKRKRQTKKRDLPSDTEEGKDEGDADSEGTNDPHEEDDAAPEEESDHEKTDTDDEKDEVEVEKPSKKKSSSKKTVEESSGSKGKDKQPSAKGSARSGEKSSKQIAKSTSSPAKKQKVDHVESSKEKSKKQPSKPQAKGSKEKGKATKKGKAKAEPTRKEMLEVVSKILKEVDFNTATLSDILQKLSDHFGVELSHRKPEVKDVITEAINAMTDDEEEDEEEEAEAGSDKEKEEVKGEEEEEKAEAESDKEKEKEEPKD
B2: DEK-DOMAIN CONTAINING PROTEIN3 (DEK3) (protein, UniProt Q9SUA1 1-763)
chain: MGEDTKATIEPTANKTTSLEKPSEAMAGKENAGGKETQELAKDEDMAEPDNMEIDAQIKKDDEKAETEDKESEVKKNEDNAETQKMEEKVEVTKDEGQAEATNMDEDADGKKEQTDDGVSVEDTVMKENVESKDNNYAKDDEKETKETDITEADHKKAGKEDIQHEADKANGTKDGNTGDIKEEGTLVDEDKGTDMDEKVENGDENKQVENVEGKEKEDKEENKTKEVEAAKAEVDESKVEDEKEGSEDENDNEKVESKDAKEDEKEETNDDKEDEKEESKGSKKRGKGTSSGGKVREKNKTEEVKKDAEPRTPFSDRPVRERKSVERLVALIDKDSSKEFRVEKGRGAYLKDIPNVANKVMRKRSDETLKLLHPILFGGRRGKAAQIKTNILGFSGFVWHGDEKKAKEKVKEKLEKCTKEKLWEFCDVLDIHITKATTKKEDIITKLFEFLEKPHVTGDVTGDTTVSEKEKSSKGAKRKRTPKKTSPTAGSSSSKRSAKSQKKSEEATKVVKKSLAHSDDESEEEKEEEEKQEEEKAEEKEEKKEEENENGIPDKSEDEAPQPSESEEKDESEEHSEEETTKKKRGSRLSAGKKESAGRARNKKAVVAAKSSPPEKITQKRSSAKRKKTDDDSDTSPKASSKRKKSENPIKASPAPSKSASKEKPVKRAGKGKDKPSDKVLKNAIVEILKRVDFSTATFTDILKELAKEFTEDLTPRKSSIKMIIQEELTKLADEEEEEEKKEEDSEKEEAGGSGGGEEVKA
B3: DEK4 (protein, UniProt F4K4Y5 1-778)
chain: MGEEDTKVIVEPTANGTSSLQKTSDAISGKEVQENASGKEVQESKKEEDTGLEKMEIDDEGKQHEGESETGDKEVEVTEEEKKDVGEDKEQPEADKMDEDTDDKNLKADDGVSGVATEEDAVMKESVESADNKDAENPEGEQEKESKEEKLEGGKANGNEEGDTEEKLVGGDKGDDVDEAEKVENVDEDDKEEALKEKNEAELAEEEETNKGEEVKEANKEDDVEADTKVAEPEVEDKKTESKDENEDKEEEKEDEKEESMDDKEDEKEESNDDDKEDEKEESNDDKEDKKEDIKKSNKRGKGKTEKTRGKTKSDEEKKDIEPKTPFFSDRPVRERKSVERLVAVVDKDSSREFHVEKGKGTPLKDIPNVAYKVSRKKSDEVFKQLHTILFGGKRVKATQLKAHILRFSGYKWQGDEEKAKLKVKEKFEKINKEKLLEFCDLFDISVAKATTKKEDIVTKLVEFLEKPHATTDVLVNEKEKGVKRKRTPKKSSPAAGSSSSKRSAKSQKKTEEATRTNKKSVAHSDDESEEEKEDDEEEEKEQEVEEEEEENENGIPDKSEDEAPQLSESEENVESEEESEEETKKKKRGSRTSSDKKESAGKSRSKKTAVPTKSSPPKKATQKRSAGKRKKSDDDSDTSPKASSKRKKTEKPAKEQAAAPLKSVSKEKPVIGKRGGKGKDKNKEPSDEELKTAIIDILKGVDFNTATFTDILKRLDAKFNISLASKKSSIKRMIQDELTKLADEAEDEEGEEEDAEHEEEEEKEKAKGSGGGEEVKA

Chains of the proteins cited; added tags and fusions are not shown. Lines headed by an entry give the natural chain unless they say otherwise; changes in a name come on top.
UniProt O23628: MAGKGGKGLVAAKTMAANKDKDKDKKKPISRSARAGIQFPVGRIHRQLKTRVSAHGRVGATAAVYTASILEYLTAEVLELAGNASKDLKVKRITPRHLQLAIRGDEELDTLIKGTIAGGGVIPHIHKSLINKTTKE

These binders were tested against HTA11-FLAG (H2A.Z) (Arabidopsis thaliana) (UniProt O23628) (assay: affinity purification with mass spectrometry).

| binding | Binder |
| --- | --- |
| binds | B1 |
| binds | B2 |
| binds | B3 |
